Source: article PMC12413633
No constants are given. Whether binding was seen depends on the method and setting. Binding seen in cells or lysates may run through a third protein. Here binding means that the protein was enriched with, or labelled near, the bait; the list need not be complete.

B1: Ppm1l (Protein Phosphatase, Mg2+/Mn2+ Dependent 1 L), mouse (enzyme, UniProt Q8BHN0 1-360)
chain: MIEDTMTLLSLLGRIMRYFLLRPETLFLLCISLALWSYFFHTDEVKTIVKSSRDAVKMVKGKVAEIMQNDRLGGLDVLEAEFSKTWEFKSHNVAVYSIQGRRDHMEDRFEVLTDLANKTHPSIFGIFDGHGGETAAEYVKSRLPEALKQHLQDYEKDKENSVLTYQTILEQQILSIDREMLEKLTVSYDEAGTTCLIALLSDKDLTVANVGDSRGVLCDKDGNAIPLSHDHKPYQLKERKRIKRAGGFISFNGSWRVQGILAMSRSLGDYPLKNLNVVIPDPDILTFDLDKLQPEFMILASDGLWDAFSNEEAVRFIKERLDEPHFGAKSIVLQSFYRGCPDNITVMVVKFRNSSKTEEH
B2: Klhl8, Kelch Like Family Member 8, mouse (protein, UniProt P59280 1-629)
chain: MASESTNGKQARSHVTKGRRQYQHQHQQQQQQQQQVRSRSSVSECDGDDSFIFEANEAWKDFHGSLLGFYENGELCDVTLKVGSKLISCHKLVLACVIPYFRAMFLSEMSEAKQALIEIRDFDGDAVEDLVKFVYSSRLTLTVDNVQPLLYAACILQVELVARACCEYMQLHFHPSNCLAVRAFAESHNRIDLMDMADQYACEHFTEVVECEDFVSVSPQHLHKLLSSSDLNIDSEKQVYSAAIKWLLANPQHHPKWLDETLAQVRLPLLPVDFLMGVVAKEQIVKQNLKCRDLLDEARNYHLHLSSKPVPDFEYTVRTTPRKHTAGVLFCVGGRGGSGDPFRSIECYSINKNSWFFGPEMNSRRRHVGVISVEGKVYAVGGHDGNEHLGSMEMFDPLTNKWMMKASMNTKRRGIALASLGGPIYAIGGLDDNTCFSDVERYDIESDQWSTVAPMNTPRGGVGSVALINHVYAVGGNDGVASLSSVERYHPHLDKWIEVKEMGQRRAGNGVSELHGCLYVVGGFDDNSPLSSVERYDPRSNKWDYVAALTTPRGGVGIATVMGKIFAVGGHNGNAYLNTVEAFDPVLNKWELVGPVSHCRAGAGVAVCDCLTSQIRDVGHGSTNVVDCM
B3: Tmprss15 (protein, UniProt P97435 1-1069)
chain: MKSSRDEAVGHHSISSFEVMLSALFIMLMVFSIGLIAVSWLAVKESEGDAALGKSHEVRGTFKITSGVTYNPNLQDKHSVDFKVLAFDLQQMIDEIFESSSLKNEYEKSKVFQFEKGSVIVLFDLFFAQWVSDKNVKEELIQGIEANISSQLVTLHIDLNSIDITASLSDFTTAVPVTTSDKLTTSSPMTTSASLGNLSTTVAATTSAPLCNLSTATFATTSGHVSIECQPGSRPCAHAWNCVATDLFCDGEVNCPDGSDEDTGLCATACDGRFLLTGDSGVFQADRYPRPDESGVVCRWIIRVNQGLSIRMNFGSFIPHYTDVLDIYEGIGPSKILRGSFWETDPGTIRIFSNLVTVTFLIKSDEYDYIGFNATYSTFNNSELNNYEKIDCTFDDGFCFWTQDLDDDNEWERIQVTTFPCYTGPRFDHTYGNGSGFYISTPTEQGWRSERVGLSSLSLDLTSEPVCLHFWYYMCCENVYNLNIHISSAETTDKIVFQRKGNYGRNWNYGQVTLNETGEFKVVFNAFRNRGCSTIALDDISLTNGICSQSPYPEPTLVPTPPPELPTDCGGPFELWEPNSTFSSPNFPDKYPNQASCIWNLNAQRGKNIQLHFQEFDLENINDVVEVRDGGEFDSLLLAVYTGPGPVKDLFSTTNRMTVIFTTNMETRRKGFKANFTSGYYLGIPEPCQDDEFQCKDGNCIPLGNLCDSYPHCRDGSDEASCVRFLNGTRSNNGLVQFNIHSIWHIACAENWTTQISNEVCHLLGLGSANSSMPISSTGGGPFVRVNQAPNGSLILTPSLQCSQDSLILLQCNHKSCGEKKVTQKVSPKIVGGSDAQAGAWPWVVALYHRDRSTDRLLCGASLVSSDWLVSAAHCVYRRNLDPTRWTAVLGLHMQSNLTSPQVVRRVVDQIVINPHYDRRRKVNDIAMMHLEFKVNYTDYIQPICLPEENQIFIPGRTCSIAGWGYDKINAGSTVDVLKEADVPLISNEKCQQQLPEYNITESMICAGYEEGGIDSCQGDSGGPLMCQENNRWFLVGVTSFGVQCALPNHPGVYVRVSQFIEWIHSFLH
B4: Nid1 (protein, UniProt P10493 29-1245)
chain: LNRQELFPFGPGQGDLELEAGDDVVSPSLELIGELSFYDRTDITSVYVTTNGIIAMSEPPATEYHPGTFPPSFGSVAPFLADLDTTDGLGNVYYREDLSPFIIQMAAEYVQRGFPEVSFQPTSVVVVTWESVAPYGGPSSSPAEEGKRNTFQAVLASSNSSSYAIFLYPEDGLQFFTTFSKKDESQVPAVVGFSKGLVGFLWKSNGAYNIFANDRESIENLAKSSNAGHQGVWVFEIGSPATAKGVVSADVNLDLDDDGADYEDEDYDLVTSHLGLEDVATPSPSHSPRRGYPDPHNVPRILSPGYEATERPRGVPTERTRSFQLPAERFPQHHPQVIDVDEVEETGVVFSYNTGSQQTCANNRHQCSVHAECRDYATGFCCRCVANYTGNGRQCVAEGSPQRVNGKVKGRIFVGSSQVPVVFENTDLHSYVVMNHGRSYTAISTIPETVGYSLLPLAPIGGIIGWMFAVEQDGFKNGFSITGGEFTRQAEVTFLGHPGKLVLKQQFSGIDEHGHLTISTELEGRVPQIPYGASVHIEPYTELYHYSSSVITSSSTREYTVMEPDQDGAAPSHTHIYQWRQTITFQECAHDDARPALPSTQQLSVDSVFVLYNKEERILRYALSNSIGPVRDGSPDALQNPCYIGTHGCDSNAACRPGPGTQFTCECSIGFRGDGQTCYDIDECSEQPSRCGNHAVCNNLPGTFRCECVEGYHFSDRGTCVAAEDQRPINYCETGLHNCDIPQRAQCIYMGGSSYTCSCLPGFSGDGRACRDVDECQHSRCHPDAFCYNTPGSFTCQCKPGYQGDGFRCMPGEVSKTRCQLEREHILGAAGGADAQRPTLQGMFVPQCDEYGHYVPTQCHHSTGYCWCVDRDGRELEGSRTPPGMRPPCLSTVAPPIHQGPVVPTAVIPLPPGTHLLFAQTGKIERLPLERNTMKKTEAKAFLHIPAKVIIGLAFDCVDKVVYWTDISEPSIGRASLHGGEPTTIIRQDLGSPEGIALDHLGRTIFWTDSQLDRIEVAKMDGTQRRVLFDTGLVNPRGIVTDPVRGNLYWTDWNRDNPKIETSHMDGTNRRILAQDNLGLPNGLTFDAFSSQLCWVDAGTHRAECLNPAQPGRRKVLEGLQYPFAVTSYGKNLYYTDWKTNSVIAMDLAISKEMDTFHPHKQTRLYGITIALSQCPQGHNYCSVNNGGCTHLCLPTPGSRTCRCPDNTLGVDCIERK

Biological target: Microtubule-associated protein 2 (MAP2) with the phosphomimetic mutation S1782E, mouse (mouse (endogenous in cerebral cortex))
Assay: affinity purification with mass spectrometry; MAP2 precipitated from cerebral cortex lysate of MAP2 WT or S1782E+/- mice (N = 8 per group) with HM-2 antibody on Dynabeads; no-antibody beads as control; washed with PBS; LC-MS/MS; SAINTq, BFDR <= 0.05

Row | Binder | binding
1 | B1 | binds
2 | B2 | binds
3 | B3 | binds
4 | B4 | binds
